This assay concerns the target integrin β1 (ITGB1) on the surface of human splenic fibroblasts (HSF) (human (endogenous in HSF)) (UniProt P05556). In words: flow cytometry on cells; HSF incubated with PvSRA 50 μg/ml at room temperature for 2 h, detected with APC-anti-6xHis-tag; with or without pretreatment of the cells with anti-human ITGB1 antibody (1:50, 1 h, room temperature); only the binder purified.

Chains of the proteins cited; added tags and fusions are not shown.
UniProt P05556: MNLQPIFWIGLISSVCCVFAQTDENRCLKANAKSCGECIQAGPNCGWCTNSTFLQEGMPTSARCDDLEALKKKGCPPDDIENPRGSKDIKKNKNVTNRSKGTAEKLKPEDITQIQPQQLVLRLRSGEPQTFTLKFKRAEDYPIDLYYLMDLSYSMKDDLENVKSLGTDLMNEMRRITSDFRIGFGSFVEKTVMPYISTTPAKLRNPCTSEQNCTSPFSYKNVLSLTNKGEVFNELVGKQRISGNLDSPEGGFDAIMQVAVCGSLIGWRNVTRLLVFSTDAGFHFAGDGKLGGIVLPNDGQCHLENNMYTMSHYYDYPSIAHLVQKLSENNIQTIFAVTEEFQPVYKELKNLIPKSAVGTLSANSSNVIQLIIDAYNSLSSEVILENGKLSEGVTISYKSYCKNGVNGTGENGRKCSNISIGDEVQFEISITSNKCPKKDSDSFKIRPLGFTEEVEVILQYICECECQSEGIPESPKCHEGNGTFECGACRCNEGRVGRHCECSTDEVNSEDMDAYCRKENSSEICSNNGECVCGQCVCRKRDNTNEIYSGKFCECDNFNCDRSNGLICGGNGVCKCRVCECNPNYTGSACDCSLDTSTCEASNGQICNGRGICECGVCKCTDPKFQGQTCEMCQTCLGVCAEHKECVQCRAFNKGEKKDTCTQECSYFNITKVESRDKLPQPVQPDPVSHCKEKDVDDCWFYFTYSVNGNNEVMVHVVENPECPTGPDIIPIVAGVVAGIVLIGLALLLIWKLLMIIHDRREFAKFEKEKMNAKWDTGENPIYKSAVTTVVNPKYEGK

No constants are given. Whether binding was seen depends on the method and setting. Some binding calls cover weakened binding; strength is not graded here.

With “recombinant Plasmodium vivax surface-related antigen (PvSRA) functional region, aa 25-321, 6xHis (from UniProt A5K0T6 25-321) (domain or fragment)”, the binding result is “binds”.

(Values after paper PMC8685506.)
